Reference: paper PMC12145959
These are yes or no findings as the source states them, for the method shown. In cells and extracts the contact can be indirect. Some binding calls cover weakened binding; strength is not graded here.

Experiments:
[1] = target: T1, mitochondrial monocarboxylate transporter 1 (mouse (endogenous in mouse skeletal muscle and C2C12 cells)) (UniProt P53986); experiment: proximity ligation; Duolink in situ proximity ligation with green detection reagents in C2C12 myotubes (differentiated five days in 2% horse serum), stained with MitoTracker Red CMXRos and Hoechst 33342, fixed; confocal microscopy
T1 sequence: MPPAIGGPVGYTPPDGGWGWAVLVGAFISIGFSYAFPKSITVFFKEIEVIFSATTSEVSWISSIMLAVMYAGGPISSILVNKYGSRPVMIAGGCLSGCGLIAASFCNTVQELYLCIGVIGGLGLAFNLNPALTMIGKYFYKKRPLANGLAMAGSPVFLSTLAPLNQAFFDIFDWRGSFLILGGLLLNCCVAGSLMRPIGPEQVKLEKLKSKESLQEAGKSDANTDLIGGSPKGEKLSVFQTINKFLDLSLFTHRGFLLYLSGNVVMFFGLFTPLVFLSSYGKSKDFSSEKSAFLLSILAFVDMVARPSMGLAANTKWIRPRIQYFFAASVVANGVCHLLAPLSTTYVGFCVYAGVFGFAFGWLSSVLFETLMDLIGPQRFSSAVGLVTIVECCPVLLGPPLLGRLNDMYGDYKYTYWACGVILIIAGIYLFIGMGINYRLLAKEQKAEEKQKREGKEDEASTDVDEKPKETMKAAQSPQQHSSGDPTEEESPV

[2] = target: T1, mitochondrial monocarboxylate transporter 1 (mouse (endogenous in mouse skeletal muscle and C2C12 cells)); experiment: proximity ligation; Duolink II in situ proximity ligation (<40 nm) in fixed, permeabilised C2C12 myoblasts; mouse anti-MCT1 and rabbit anti-MPC1 antibodies; MCT1 and CD147 as positive control; red signal, confocal microscopy
[3] = target: T1, mitochondrial monocarboxylate transporter 1 (mouse (endogenous in mouse skeletal muscle and C2C12 cells)); experiment: co-IP; mitochondrial fractions (100 ug) from mouse skeletal muscle in Tris-EDTA with protease and phosphatase inhibitors, without a detergent; pre-cleared with Protein G magnetic beads and rabbit IgG; primary antibodies on Protein G magnetic beads, overnight at 4 C; five washes with PBS; SDS-PAGE and immunoblotting

binding [1]: binds | binding [2]: binds | binding [3]: binds
B1: mitochondrial pyruvate carrier 1 (protein, UniProt P63030 1-109)
chain: MAGALVRKAADYVRSKDFRDYLMSTHFWGPVANWGLPIAAINDMKKSPEIISGRMTFALCCYSLTFMRFAYKVQPRNWLLFACHVTNEVAQLIQGGRLINYEMSKRPSA
